Drawing on paper PMC7371429, this text covers binding for two molecules.

The chains behind the UniProt entries cited, without tags or fusion partners.
UniProt Q92826: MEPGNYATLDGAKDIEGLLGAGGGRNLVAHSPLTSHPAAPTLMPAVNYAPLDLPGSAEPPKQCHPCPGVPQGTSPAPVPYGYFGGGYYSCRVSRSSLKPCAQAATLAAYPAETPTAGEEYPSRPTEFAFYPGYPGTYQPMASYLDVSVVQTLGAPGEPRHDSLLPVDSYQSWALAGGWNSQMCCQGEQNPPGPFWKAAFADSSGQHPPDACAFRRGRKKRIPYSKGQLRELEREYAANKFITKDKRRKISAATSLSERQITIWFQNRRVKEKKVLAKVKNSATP

Test [1] deals with HOXB13, endogenous (human (endogenous in PrECs, CWR22Rv1 and LAPC4)) (UniProt Q92826). As to the kind of experiment: co-IP; whole cell lysates (20 mM Tris pH 7.5, 150 mM NaCl, 1% Triton-X 100); 1000 ug lysate precipitated with anti-HOXB13 (EPR17371) overnight at 4°C, Protein A/G agarose; blot for MEIS1 and HOXB13.
For test [2] the target is unchanged. Kind of test: proximity ligation; in situ PLA (Duolink In Situ Red, Mouse/Rabbit) on fixed, permeabilised cells with anti-HOXB13(F-9) and anti-MEIS1 antibodies; nuclear foci counted per nucleus.

Results are given in words; binding and its absence hold for the method and conditions named. Binding seen in cells or lysates may run through a third protein. Some entries that bind do so weakly or less than the wild type.

B1: MEIS1 (myeloid ecotropic viral integration site 1), endogenous (protein, UniProt O00470 1-390)
chain: MAQRYDDLPHYGGMDGVGIPSTMYGDPHAARSMQPVHHLNHGPPLHSHQYPHTAHTNAMAPSMGSSVNDALKRDKDAIYGHPLFPLLALIFEKCELATCTPREPGVAGGDVCSSESFNEDIAVFAKQIRAEKPLFSSNPELDNLMIQAIQVLRFHLLELEKVHELCDNFCHRYISCLKGKMPIDLVIDDREGGSKSDSEDITRSANLTDQPSWNRDHDDTASTRSGGTPGPSSGGHTSHSGDNSSEQGDGLDNSVASPSTGDDDDPDKDKKRHKKRGIFPKVATNIMRAWLFQHLTHPYPSEEQKKQLAQDTGLTILQVNNWFINARRRIVQPMIDQSNRAVSQGTPYNPDGQPMGGFVMDGQQHMGIRAPGPMSGMGMNMGMEGQWHYM
For the molecule B1, the binding entry in test [1] and in test [2] was “binds” in each case.

B2: MEIS1, exogenous (lentiviral LV-MEIS1) (protein, UniProt O00470 1-390)
chain: MAQRYDDLPHYGGMDGVGIPSTMYGDPHAARSMQPVHHLNHGPPLHSHQYPHTAHTNAMAPSMGSSVNDALKRDKDAIYGHPLFPLLALIFEKCELATCTPREPGVAGGDVCSSESFNEDIAVFAKQIRAEKPLFSSNPELDNLMIQAIQVLRFHLLELEKVHELCDNFCHRYISCLKGKMPIDLVIDDREGGSKSDSEDITRSANLTDQPSWNRDHDDTASTRSGGTPGPSSGGHTSHSGDNSSEQGDGLDNSVASPSTGDDDDPDKDKKRHKKRGIFPKVATNIMRAWLFQHLTHPYPSEEQKKQLAQDTGLTILQVNNWFINARRRIVQPMIDQSNRAVSQGTPYNPDGQPMGGFVMDGQQHMGIRAPGPMSGMGMNMGMEGQWHYM
In the case of B2, the binding entry in test [1] and in test [2] was “binds” throughout.
